Results as given in the supplement of paper PMC10032668.
The list shows a part of the results. Only hits are listed; about a third recur on repeated control peptides.

By UniProt entry, the sequences of proteins in these tests, tags left out.
CKS2, P33552, UniProt P33552, whole entry: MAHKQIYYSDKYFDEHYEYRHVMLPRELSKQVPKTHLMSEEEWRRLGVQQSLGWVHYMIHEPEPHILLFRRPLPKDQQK
NDUFB7, P17568, UniProt P17568, whole entry: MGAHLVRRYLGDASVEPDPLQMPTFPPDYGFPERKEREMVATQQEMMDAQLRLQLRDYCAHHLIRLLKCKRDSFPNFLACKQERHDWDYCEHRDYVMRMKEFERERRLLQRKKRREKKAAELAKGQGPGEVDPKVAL
PDLIM7, Q9NR12, UniProt Q9NR12, whole entry: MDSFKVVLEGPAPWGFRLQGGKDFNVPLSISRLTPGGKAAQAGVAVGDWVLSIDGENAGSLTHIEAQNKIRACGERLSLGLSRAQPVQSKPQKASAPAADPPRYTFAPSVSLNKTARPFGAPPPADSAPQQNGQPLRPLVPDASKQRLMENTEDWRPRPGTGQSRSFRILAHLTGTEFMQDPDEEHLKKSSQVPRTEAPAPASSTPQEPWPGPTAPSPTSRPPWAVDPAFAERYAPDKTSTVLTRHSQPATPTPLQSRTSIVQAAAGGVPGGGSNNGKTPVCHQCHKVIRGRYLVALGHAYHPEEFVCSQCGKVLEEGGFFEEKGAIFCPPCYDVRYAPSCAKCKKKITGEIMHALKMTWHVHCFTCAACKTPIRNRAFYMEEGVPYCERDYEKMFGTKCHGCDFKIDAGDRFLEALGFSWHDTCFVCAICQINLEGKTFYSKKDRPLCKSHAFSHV
PLK1, P53350, UniProt P53350, whole entry: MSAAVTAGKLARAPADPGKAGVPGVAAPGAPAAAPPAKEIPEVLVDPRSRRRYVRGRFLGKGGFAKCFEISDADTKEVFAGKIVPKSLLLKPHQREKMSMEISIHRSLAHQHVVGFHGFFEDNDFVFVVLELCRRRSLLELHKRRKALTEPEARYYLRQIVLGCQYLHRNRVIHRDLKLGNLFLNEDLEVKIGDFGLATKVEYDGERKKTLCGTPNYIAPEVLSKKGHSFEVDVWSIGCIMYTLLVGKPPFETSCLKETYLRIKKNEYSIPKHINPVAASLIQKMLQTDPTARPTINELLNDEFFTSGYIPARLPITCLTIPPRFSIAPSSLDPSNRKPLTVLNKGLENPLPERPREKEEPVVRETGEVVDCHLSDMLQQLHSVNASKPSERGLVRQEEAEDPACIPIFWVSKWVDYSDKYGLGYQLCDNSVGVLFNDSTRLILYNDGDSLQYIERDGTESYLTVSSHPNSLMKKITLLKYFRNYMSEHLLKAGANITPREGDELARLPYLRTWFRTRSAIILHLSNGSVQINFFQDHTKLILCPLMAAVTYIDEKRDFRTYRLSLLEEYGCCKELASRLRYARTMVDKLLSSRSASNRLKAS
COX4I1, P13073, UniProt P13073, whole entry: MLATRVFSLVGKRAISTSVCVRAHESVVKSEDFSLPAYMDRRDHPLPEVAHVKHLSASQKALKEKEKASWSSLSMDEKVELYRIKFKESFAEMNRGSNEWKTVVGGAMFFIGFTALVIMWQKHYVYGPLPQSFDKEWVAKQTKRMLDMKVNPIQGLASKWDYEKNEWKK
EIF3B, P55884, UniProt P55884, whole entry: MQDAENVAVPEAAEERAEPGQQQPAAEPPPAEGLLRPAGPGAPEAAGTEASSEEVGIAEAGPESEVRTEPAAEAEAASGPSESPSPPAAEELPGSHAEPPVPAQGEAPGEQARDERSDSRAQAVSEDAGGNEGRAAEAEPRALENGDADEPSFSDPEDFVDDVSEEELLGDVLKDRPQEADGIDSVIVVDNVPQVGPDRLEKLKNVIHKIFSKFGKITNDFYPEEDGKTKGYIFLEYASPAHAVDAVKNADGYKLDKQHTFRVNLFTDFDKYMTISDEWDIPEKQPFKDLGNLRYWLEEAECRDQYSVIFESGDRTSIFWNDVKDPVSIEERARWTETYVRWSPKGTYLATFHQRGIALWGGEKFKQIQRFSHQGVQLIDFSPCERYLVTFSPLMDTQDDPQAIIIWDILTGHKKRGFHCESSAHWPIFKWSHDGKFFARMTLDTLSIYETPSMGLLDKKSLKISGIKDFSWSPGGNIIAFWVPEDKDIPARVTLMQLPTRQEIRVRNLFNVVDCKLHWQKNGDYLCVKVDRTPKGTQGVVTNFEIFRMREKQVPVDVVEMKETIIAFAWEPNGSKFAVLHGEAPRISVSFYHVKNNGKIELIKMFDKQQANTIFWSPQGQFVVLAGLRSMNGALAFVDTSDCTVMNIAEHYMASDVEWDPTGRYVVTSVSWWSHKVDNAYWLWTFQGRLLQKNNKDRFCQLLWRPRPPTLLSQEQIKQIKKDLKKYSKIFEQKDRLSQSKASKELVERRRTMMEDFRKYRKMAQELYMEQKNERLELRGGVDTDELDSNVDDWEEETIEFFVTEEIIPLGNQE
KHDRBS1, Q07666, UniProt Q07666, whole entry: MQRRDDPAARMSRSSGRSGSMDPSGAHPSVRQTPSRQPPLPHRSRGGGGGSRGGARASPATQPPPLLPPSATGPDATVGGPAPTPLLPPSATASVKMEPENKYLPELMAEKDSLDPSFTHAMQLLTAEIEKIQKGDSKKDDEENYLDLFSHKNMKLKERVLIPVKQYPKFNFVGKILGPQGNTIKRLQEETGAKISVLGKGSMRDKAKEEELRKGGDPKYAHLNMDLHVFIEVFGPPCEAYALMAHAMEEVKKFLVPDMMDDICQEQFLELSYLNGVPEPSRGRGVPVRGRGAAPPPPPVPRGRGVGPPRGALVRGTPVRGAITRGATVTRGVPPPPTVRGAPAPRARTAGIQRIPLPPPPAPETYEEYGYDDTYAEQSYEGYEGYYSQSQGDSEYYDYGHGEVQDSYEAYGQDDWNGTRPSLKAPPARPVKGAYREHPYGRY
NDUFA10, O95299, UniProt O95299, whole entry: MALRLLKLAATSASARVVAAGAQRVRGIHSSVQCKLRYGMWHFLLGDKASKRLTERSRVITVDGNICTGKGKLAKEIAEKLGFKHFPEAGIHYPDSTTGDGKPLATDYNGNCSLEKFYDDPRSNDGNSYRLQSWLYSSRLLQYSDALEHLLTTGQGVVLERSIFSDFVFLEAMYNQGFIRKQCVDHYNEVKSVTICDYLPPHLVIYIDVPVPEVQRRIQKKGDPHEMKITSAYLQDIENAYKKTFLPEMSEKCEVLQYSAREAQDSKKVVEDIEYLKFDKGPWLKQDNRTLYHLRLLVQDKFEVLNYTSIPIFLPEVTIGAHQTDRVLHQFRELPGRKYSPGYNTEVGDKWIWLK
NUDT21, O43809, UniProt O43809, whole entry: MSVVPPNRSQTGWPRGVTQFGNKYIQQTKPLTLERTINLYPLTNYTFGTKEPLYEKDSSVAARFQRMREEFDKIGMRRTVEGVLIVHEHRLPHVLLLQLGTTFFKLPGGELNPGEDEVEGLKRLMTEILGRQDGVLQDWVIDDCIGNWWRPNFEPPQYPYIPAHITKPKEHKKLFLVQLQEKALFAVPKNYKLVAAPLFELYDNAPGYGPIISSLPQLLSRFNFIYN

Legend:
Assay in all cases: PRISMA enrichment of interactor (LFQ) in peptide spot vs all other peptide spots (log2 fold change); higher = stronger / more specific binding of the interactor to the peptide
ANXA7, P20073 = biological target: ANXA7, P20073
Experimental: (§1)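 PRISMA: 15-aa overlapping tiles (offset 8 aa) of 60 microproteins, plus SOS1/GLUT1 control peptides, were spot-synthesized on cellulose membranes in triplicate. Membranes were incubated with benzonase-treated HEK293T lysate, and bound proteins were identified by LC-MS/MS with LFQ. Enrichment is the log2 fold change of each protein in one spot versus all other spots. Only interactors passing the significance cutoff are listed.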

AP2A1, O95782 = biological target: AP2A1, O95782
Experimental: as §1

AP2B1, P63010 = biological target: AP2B1, P63010
Experimental: as §1

CKS2, P33552 = biological target: CKS2, P33552
Experimental: as §1

CSRP2, Q16527 = biological target: CSRP2, Q16527
Experimental: as §1

CSTF1, Q05048 = biological target: CSTF1, Q05048
Experimental: as §1

DNAJA3, Q96EY1 = biological target: DNAJA3, Q96EY1
Experimental: as §1

EWSR1, Q01844 = biological target: EWSR1, Q01844
Experimental: as §1

FAM168A, Q92567 = biological target: FAM168A, Q92567
Experimental: as §1

FAM98A, Q8NCA5 = biological target: FAM98A, Q8NCA5
Experimental: as §1

FUS, P35637 = biological target: FUS, P35637
Experimental: as §1

GABARAPL2, P60520 = biological target: GABARAPL2, P60520
Experimental: as §1

GAR1, Q9NY12 = biological target: GAR1, Q9NY12
Experimental: as §1

HNRNPA1, P09651 = biological target: HNRNPA1, P09651
Experimental: as §1

HNRNPA2B1, P22626 = biological target: HNRNPA2B1, P22626
Experimental: as §1

HNRNPA3, P51991 = biological target: HNRNPA3, P51991
Experimental: as §1

NDUFB7, P17568 = biological target: NDUFB7, P17568
Experimental: as §1

NUDT16L1, Q9BRJ7 = biological target: NUDT16L1, Q9BRJ7
Experimental: as §1

PDLIM7, Q9NR12 = biological target: PDLIM7, Q9NR12
Experimental: as §1

PLK1, P53350 = biological target: PLK1, P53350
Experimental: as §1

PPIL2, Q13356 = biological target: PPIL2, Q13356
Experimental: as §1

PUSL1, Q8N0Z8 = biological target: PUSL1, Q8N0Z8
Experimental: as §1

PYCR1, P32322 = biological target: PYCR1, P32322
Experimental: as §1

RBMXL1, Q96E39 = biological target: RBMXL1, Q96E39
Experimental: as §1

RTCB, Q9Y3I0 = biological target: RTCB, Q9Y3I0
Experimental: as §1

RTRAF, Q9Y224 = biological target: RTRAF, Q9Y224
Experimental: as §1

SFPQ, P23246 = biological target: SFPQ, P23246
Experimental: as §1

SLC9A3R2, Q15599 = biological target: SLC9A3R2, Q15599
Experimental: as §1

SNX27, Q96L92 = biological target: SNX27, Q96L92
Experimental: as §1

SRI, P30626 = biological target: SRI, P30626
Experimental: as §1

TAF15, Q92804 = biological target: TAF15, Q92804
Experimental: as §1

AP2M1, Q96CW1 = biological target: AP2M1, Q96CW1
Experimental: as §1

COX4I1, P13073 = biological target: COX4I1, P13073
Experimental: as §1

EIF2B3, Q9NR50 = biological target: EIF2B3, Q9NR50
Experimental: as §1

EIF3B, P55884 = biological target: EIF3B, P55884
Experimental: as §1

HINT1, P49773 = biological target: HINT1, P49773
Experimental: as §1

KHDRBS1, Q07666 = biological target: KHDRBS1, Q07666
Experimental: as §1

NDUFA10, O95299 = biological target: NDUFA10, O95299
Experimental: as §1

NME4, O00746 = biological target: NME4, O00746
Experimental: as §1

[1] = substrate: NONO, Q15233
Experimental: as §1

NUDT21, O43809 = biological target: NUDT21, O43809
Experimental: as §1

SOAT1, P35610 = biological target: SOAT1, P35610
Experimental: as §1

SPAG7, O75391 = biological target: SPAG7, O75391
Experimental: as §1

TNRC6A, Q8NDV7 = biological target: TNRC6A, Q8NDV7
Experimental: as §1

YIF1A, O95070 = biological target: YIF1A, O95070
Experimental: as §1

ZNF687, Q8N1G0 = biological target: ZNF687, Q8N1G0
Experimental: as §1

ZNF770, Q6IQ21 = biological target: ZNF770, Q6IQ21
Experimental: as §1

B1: NAV2-AS2_2 (peptide)
chain: MPRRHEPVWEMTGFF
PRISMA enrichment of interactor (log2) (ANXA7, P20073): 3.84
PRISMA enrichment of interactor (log2) (AP2A1, O95782): 4.68
PRISMA enrichment of interactor (log2) (AP2B1, P63010): 5.19
PRISMA enrichment of interactor (log2) (CKS2, P33552): 6.02
PRISMA enrichment of interactor (log2) (CSRP2, Q16527): 4.92
PRISMA enrichment of interactor (log2) (CSTF1, Q05048): 4.23
PRISMA enrichment of interactor (log2) (DNAJA3, Q96EY1): 4.97
PRISMA enrichment of interactor (log2) (EWSR1, Q01844): 7.5
PRISMA enrichment of interactor (log2) (FAM168A, Q92567): 4.7
PRISMA enrichment of interactor (log2) (FAM98A, Q8NCA5): 6.42
PRISMA enrichment of interactor (log2) (FUS, P35637): 7.67
PRISMA enrichment of interactor (log2) (GABARAPL2, P60520): 4.68
PRISMA enrichment of interactor (log2) (GAR1, Q9NY12): 4.86
PRISMA enrichment of interactor (log2) (HNRNPA1, P09651): 4.76
PRISMA enrichment of interactor (log2) (HNRNPA2B1, P22626): 5.19
PRISMA enrichment of interactor (log2) (HNRNPA3, P51991): 5.22
PRISMA enrichment of interactor (log2) (NDUFB7, P17568): 4.99
PRISMA enrichment of interactor (log2) (NUDT16L1, Q9BRJ7): 5.03
PRISMA enrichment of interactor (log2) (PDLIM7, Q9NR12): 5.08
PRISMA enrichment of interactor (log2) (PLK1, P53350): 4.71
PRISMA enrichment of interactor (log2) (PPIL2, Q13356): 5.31
PRISMA enrichment of interactor (log2) (PUSL1, Q8N0Z8): 4.34
PRISMA enrichment of interactor (log2) (PYCR1, P32322): 4.6
PRISMA enrichment of interactor (log2) (RBMXL1, Q96E39): 4.43
PRISMA enrichment of interactor (log2) (RTCB, Q9Y3I0): 5.64
PRISMA enrichment of interactor (log2) (RTRAF, Q9Y224): 5.78
PRISMA enrichment of interactor (log2) (SFPQ, P23246): 5.34
PRISMA enrichment of interactor (log2) (SLC9A3R2, Q15599): 5.15
PRISMA enrichment of interactor (log2) (SNX27, Q96L92): 5.03
PRISMA enrichment of interactor (log2) (SRI, P30626): 4.23
PRISMA enrichment of interactor (log2) (TAF15, Q92804): 6.12

B2: NDUFB3 (peptide)
chain: DPWGRNEAWRYMGGF
PRISMA enrichment of interactor (log2) (ANXA7, P20073): 5.99
PRISMA enrichment of interactor (log2) (AP2A1, O95782): 4.77
PRISMA enrichment of interactor (log2) (AP2B1, P63010): 5.51
PRISMA enrichment of interactor (log2) (AP2M1, Q96CW1): 4.97
PRISMA enrichment of interactor (log2) (COX4I1, P13073): 4.65
PRISMA enrichment of interactor (log2) (EIF2B3, Q9NR50): 7.81
PRISMA enrichment of interactor (log2) (EIF3B, P55884): 4.91
PRISMA enrichment of interactor (log2) (EWSR1, Q01844): 6.63
PRISMA enrichment of interactor (log2) (FUS, P35637): 5.35
PRISMA enrichment of interactor (log2) (HINT1, P49773): 6.07
PRISMA enrichment of interactor (log2) (HNRNPA2B1, P22626): 4.71
PRISMA enrichment of interactor (log2) (HNRNPA3, P51991): 4.95
PRISMA enrichment of interactor (log2) (KHDRBS1, Q07666): 5.43
PRISMA enrichment of interactor (log2) (NDUFA10, O95299): 5.15
PRISMA enrichment of interactor (log2) (NME4, O00746): 4.33
PRISMA enrichment of interactor (log2) [1]: 4.86
PRISMA enrichment of interactor (log2) (NUDT21, O43809): 4.3
PRISMA enrichment of interactor (log2) (SFPQ, P23246): 5.39
PRISMA enrichment of interactor (log2) (SOAT1, P35610): 4.62
PRISMA enrichment of interactor (log2) (SPAG7, O75391): 3.78
PRISMA enrichment of interactor (log2) (TNRC6A, Q8NDV7): 4.54
PRISMA enrichment of interactor (log2) (YIF1A, O95070): 4.88
PRISMA enrichment of interactor (log2) (ZNF687, Q8N1G0): 5.13
PRISMA enrichment of interactor (log2) (ZNF770, Q6IQ21): 4.71
